Experimental data from article doi:10.1101/2024.10.27.620478.
Results are given in words; binding and its absence hold for the method and conditions named. Binding seen in cells or lysates may run through a third protein. Some binding calls cover weakened binding; strength is not graded here.

Target: T1, BAG-1 (human (endogenous in SH-SY5Y)) (UniProt Q99933)
T1 sequence: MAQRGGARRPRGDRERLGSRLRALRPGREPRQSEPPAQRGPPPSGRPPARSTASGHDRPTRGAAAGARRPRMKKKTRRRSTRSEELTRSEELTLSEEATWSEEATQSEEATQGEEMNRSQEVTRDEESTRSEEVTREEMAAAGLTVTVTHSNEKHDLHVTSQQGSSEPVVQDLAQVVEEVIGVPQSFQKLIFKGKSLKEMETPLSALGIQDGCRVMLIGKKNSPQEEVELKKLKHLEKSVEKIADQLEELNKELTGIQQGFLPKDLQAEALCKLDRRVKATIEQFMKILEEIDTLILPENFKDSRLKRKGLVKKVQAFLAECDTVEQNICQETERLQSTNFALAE
Assay: co-IP

- binding: binds
B1: EVA1-C (protein, UniProt P58658 49-441)
chain: LTDFSGYLTKLLQNHTTYACDGDYLNLQCPRHSTISVQSAFYGQDYQMCSSQKPASQREDSLTCVAATTFQKVLDECQNQRACHLLVNSRVFGPDLCPGSSKYLLVSFKCQPNELKNKTVCEDQELKLHCHESKFLNIYSATYGRRTQERDICSSKAERLPPFDCLSYSALQVLSRRCYGKQRCKIIVNNHHFGSPCLPGVKKYLTVTYACVPKNILTAIDPAIANLKPSLKQKDGEYGINFDPSGSKVLRKDGILVSNSLAAFAYIRAHPERAALLFVSSVCIGLALTLCALVIRESCAKDFRDLQLGREQLVPGSDKVEEDSEDEEEEEDPSESDFPGELSGFCRTSYPIYSSIEAAELAERIERREQIIQEIWMNSGLDTSLPRNMGQFY
